Common to all, as to experiment: microarray fluorescence
One data set relates to Cy3-thrombin. To be noted: temperature not stated, commercial protein, protein details: Cy3 label, folded or branched ….
Data set [1] has as its system Cy3-IgE (direct labeling). The following applies: temperature not stated, commercial protein, protein details: Cy3 label, D/P 2.4 unless stated, folded or branched DNA.
For data set [2], the system named is biotin-IgE (indirect labeling). To be noted: temperature not stated, commercial protein, protein details: biotin, detected with Cy3-streptavidin, folded or branched DNA.
Where [3] appears, read: direct label, reduced at long linkers, above SA; T linker to array surface; PBS-based wash: 8.1 mM Na2HPO4, 137 mM NaCl, 1 mM MgCl2, pH 7.4).
[4] abbreviates: not significant; T linker to array surface; PBS-based wash: 8.1 mM Na2HPO4, 137 mM NaCl, 1 mM MgCl2, pH 7.4).

A negative result means that nothing was seen under these conditions. For at least one entry, the source does not settle the construct or the ends of the probe. For part of these data: Weaker means in comparison with the reference protein, sequence or condition of that experiment.

GGAACGACGGGTGGGTGGGAGGGAGATCGTTCC [RF3]: the binding result in the data set with Cy3-thrombin (enhanced relative to TFBS; T linker to array surface; PBS-based wash: 8.1 mM Na2HPO4, 137 mM NaCl, 1 mM MgCl2, pH 7.4)) is listed as “binds”.

On to “CACGTTTATCCGTCCCTCCTAGTGGCGTG [IgE_17-1 (IgE_D17-1)]”, for which the binding result in data set [1] (direct label, D/P 0.41; T linker to array surface; PBS-based wash: 8.1 mM Na2HPO4, 137 mM NaCl, 1 mM MgCl2, pH 7.4)) is “binds”; in data set [1] (direct label, D/P 2.4; T linker to array surface; PBS-based wash: 8.1 mM Na2HPO4, 137 mM NaCl, 1 mM MgCl2, pH 7.4)), “no binding”.

In the case of “GGGGCACGTTTATCCGACCCTCCTAGTGGCGTGCCCC [ID17-4SM17]”, the binding result in data set [1] (setting [3]) is given as “binds more weakly”.

Consider GGAACGACGGTGGTGGAGGAGATCGTTCC [RF2], for which the binding result in the data set on Cy3-thrombin (T linker to array surface; PBS-based wash: 8.1 mM Na2HPO4, 137 mM NaCl, 1 mM MgCl2, pH 7.4)) is on record as “no binding”.

As to “GGGGCACGTTTAGCCGTCCCTCCTTGTGGCGTGCCCC [ID17-4DM13_25]”, the binding result in data set [1] (setting [3]) was “binds more weakly”.

As for “GGGGCACGTTTATCCGTCCCGCCTAGTGGCGTGCCCC [ID17-4SM21]”, the binding result is reported as “binds more weakly” in data set [1] (direct label, reduced, above SA, no acceptable Kd fit; T linker to array surface; PBS-based wash: 8.1 mM Na2HPO4, 137 mM NaCl, 1 mM MgCl2, pH 7.4)) and “binds more weakly” in data set [2] (indirect label, weak, no fit; T linker to array surface; PBS-based wash: 8.1 mM Na2HPO4, 137 mM NaCl, 1 mM MgCl2, pH 7.4)).

With “TCTGTGAGACGACGCACCGGTCGCAGGTTTTGTCTCACAG [SA (streptavidin aptamer mutant)]”, the binding result in data set [1] (direct label, background only; T linker to array surface; PBS-based wash: 8.1 mM Na2HPO4, 137 mM NaCl, 1 mM MgCl2, pH 7.4)) is “no binding”; with Cy3-thrombin (setting [4]) it was “no binding”; in data set [2] (indirect label, could not be fitted, nonbinder; T linker to array surface; PBS-based wash: 8.1 mM Na2HPO4, 137 mM NaCl, 1 mM MgCl2, pH 7.4)), “no binding”.

Take “GGGGCACGTTTATCCGTCCCTCCTAGTGGCGTGCCCC [IgE_17-4 (IgE_D17-4), T linker]”: in the data set with Cy3-thrombin (setting [4]), the binding result was “no binding”.

For the sequence GGTTGGTGTGGTTGG [TFBS], in the data set with Cy3-thrombin (T linker, A, C, G linkers vary, T linker to array surface (A, C, G linkers also tested); PBS-based wash: 8.1 mM Na2HPO4, 137 mM NaCl, 1 mM MgCl2, pH 7.4)), the binding result is given as “binds”.

For the sequence CCTGGGGGAGTATTGCGGAGGAAGG [ATP 25.42], the binding result in the data set with Cy3-thrombin (setting [4]) is given as “no binding”.

Turning to “GGGGCACGTTTATCCGTCCCTCCTAGTAGCGTGCCCC [ID17-4SM28]”, the binding result in data set [1] (setting [3]) is “binds more weakly”.
